Reference: PubChem BioAssay AID602196 (INSERM, 2012)
In all, the deposit lists about 23,000 reagents; shown is a random part of them. 455 of them (2%) count as active. 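Active includes both protection and sensitisation; some change values fall well beyond the stated -50 to +50 range.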 A number with no mark means an inactive call. Not all columns of the deposit are shown. Reagent sequences are not shown. The record does not give: the amount of reagent.

Screen: 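Knock-downs that protect lung cancer cells from cisplatin or sensitise them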
System: human A549 lung cancer cells
Reagents: siRNA pair against human genes
Time to read-out: 48 h transfection before cisplatin; time from cisplatin to read-out not stated
Conditions: cisplatin at a dose killing half of control-siRNA cells; exact dose and duration not given
Measured: 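Cisplatin cell death as a shift from the 50% death seen with control siRNA; siRNAs toxic or growth-blocking alone scored 0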
Reading the numbers: two-siRNA summed score (-2 to +2): higher = both siRNAs protect from cisplatin killing; -2 means both sensitise; mean protection from cisplatin (shift in death): higher = protection from cisplatin killing
Hit rule: 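Each siRNA scores 0 if harmful alone by LDH or WST-1, otherwise +1 if it reduces and -1 if it increases cisplatin killing; a gene is active when both siRNAs agree (sum +2 or -2)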
Meaning of the calls: active = both siRNAs shift cisplatin killing the same way; inactive = no consistent shift, or siRNA harmful alone

RASIP1 [SID131519358] showed two-siRNA summed score (-2 to +2) = 1; mean protection from cisplatin (shift in death) (%) = 5. Against LOC339539 [SID131507212], the entry reads two-siRNA summed score (-2 to +2) = 0; mean protection from cisplatin (shift in death) (%) = -0.4. EMC4 [SID131509486] scored two-siRNA summed score (-2 to +2) = 0; mean protection from cisplatin (shift in death) (%) = 2.2. With knock-down of LDHAL6B [SID131514730], the record shows two-siRNA summed score (-2 to +2) = 0; mean protection from cisplatin (shift in death) (%) = 8.2. With knock-down of ABCC13 [SID131511131] the results were two-siRNA summed score (-2 to +2) = 0; mean protection from cisplatin (shift in death) (%) = 4. After knock-down of PBOV1 [SID131502126] the results were two-siRNA summed score (-2 to +2) = -1; mean protection from cisplatin (shift in death) (%) = -5.1.

With knock-down of TUSC2 [SID131500426] the results were two-siRNA summed score (-2 to +2) = -1; mean protection from cisplatin (shift in death) (%) = -35.2. Depletion of ANAPC10 [SID131501903] resulted in: two-siRNA summed score (-2 to +2) = -1; mean protection from cisplatin (shift in death) (%) = -6.7. For RRP8 [SID131512015], the values are two-siRNA summed score (-2 to +2) = 0; mean protection from cisplatin (shift in death) (%) = 5. After knock-down of MANSC1 [SID131505928], the record shows two-siRNA summed score (-2 to +2) = 0; mean protection from cisplatin (shift in death) (%) = -2.3. After knock-down of LOC284269 [SID131516407], the screen gave two-siRNA summed score (-2 to +2) = 0; mean protection from cisplatin (shift in death) (%) = 10.8. H4C5 [SID131517505] scored two-siRNA summed score (-2 to +2) = 0; mean protection from cisplatin (shift in death) (%) = 13.7.

Knock-down of CD101 [SID131502707] resulted in: two-siRNA summed score (-2 to +2) = -1; mean protection from cisplatin (shift in death) (%) = 2.8. ZSWIM4 [SID131516498] showed two-siRNA summed score (-2 to +2) = 0; mean protection from cisplatin (shift in death) (%) = 11. Silencing of KRTAP26-1 [SID131508180] gave: two-siRNA summed score (-2 to +2) = 0; mean protection from cisplatin (shift in death) (%) = 0.7. YTHDF2 [SID131511561] scored two-siRNA summed score (-2 to +2) = 0; mean protection from cisplatin (shift in death) (%) = 4.5. For MISP [SID131510432], the values are two-siRNA summed score (-2 to +2) = 0; mean protection from cisplatin (shift in death) (%) = 3.2. With knock-down of TTI1 [SID131513668], the record shows two-siRNA summed score (-2 to +2) = 0; mean protection from cisplatin (shift in death) (%) = 6.9.

For ZNF354C [SID131509775], the entry reads two-siRNA summed score (-2 to +2) = 0; mean protection from cisplatin (shift in death) (%) = 2.5. AXDND1 [SID131523063] gave two-siRNA summed score (-2 to +2) = 2 (active); mean protection from cisplatin (shift in death) (%) = 18.3. After knock-down of SERPINA10 [SID131500758] the results were two-siRNA summed score (-2 to +2) = -1; mean protection from cisplatin (shift in death) (%) = -16.5. Against ABHD14B [SID131505686] the deposit lists two-siRNA summed score (-2 to +2) = 0; mean protection from cisplatin (shift in death) (%) = -2.7. After knock-down of HS3ST2 [SID131505020], the screen gave two-siRNA summed score (-2 to +2) = 0; mean protection from cisplatin (shift in death) (%) = -4. For CEP112 [SID131516412], the entry reads two-siRNA summed score (-2 to +2) = 0; mean protection from cisplatin (shift in death) (%) = 10.8.

FOXL1 [SID131518838] scored two-siRNA summed score (-2 to +2) = 0; mean protection from cisplatin (shift in death) (%) = 30.8. SHD [SID131502694] gave two-siRNA summed score (-2 to +2) = -1; mean protection from cisplatin (shift in death) (%) = 2.3. FIG4 [SID131507078] scored two-siRNA summed score (-2 to +2) = 0; mean protection from cisplatin (shift in death) (%) = -0.6. With knock-down of HSPB8 [SID131500994], the screen gave two-siRNA summed score (-2 to +2) = -1; mean protection from cisplatin (shift in death) (%) = -13.6. Against ABTB2 [SID131506369], the values are two-siRNA summed score (-2 to +2) = 0; mean protection from cisplatin (shift in death) (%) = -1.6. LOC400224 [SID131511631] gave two-siRNA summed score (-2 to +2) = 0; mean protection from cisplatin (shift in death) (%) = 4.6.

Knock-down of POLM [SID131503547] gave: two-siRNA summed score (-2 to +2) = 0; mean protection from cisplatin (shift in death) (%) = -9.3.

Hits, among the entries above:
AXDND1 [SID131523063] → two-siRNA summed score (-2 to +2) = 2 (active); mean protection from cisplatin (shift in death) (%) = 18.3
